# Experimental data published in the supplement of paper PMC11732987, “Enantioselective OTUD7B fragment discovery through chemoproteomics screening and high-throughput optimisation” (Communications Chemistry, 2025).
# By UniProt entry, the sequences of proteins in these tests, tags left out. Where a name states a change or a piece, a line headed by the entry shows the natural chain unless it says otherwise. Residues count along the entry.
# UniProt Q9BQG0: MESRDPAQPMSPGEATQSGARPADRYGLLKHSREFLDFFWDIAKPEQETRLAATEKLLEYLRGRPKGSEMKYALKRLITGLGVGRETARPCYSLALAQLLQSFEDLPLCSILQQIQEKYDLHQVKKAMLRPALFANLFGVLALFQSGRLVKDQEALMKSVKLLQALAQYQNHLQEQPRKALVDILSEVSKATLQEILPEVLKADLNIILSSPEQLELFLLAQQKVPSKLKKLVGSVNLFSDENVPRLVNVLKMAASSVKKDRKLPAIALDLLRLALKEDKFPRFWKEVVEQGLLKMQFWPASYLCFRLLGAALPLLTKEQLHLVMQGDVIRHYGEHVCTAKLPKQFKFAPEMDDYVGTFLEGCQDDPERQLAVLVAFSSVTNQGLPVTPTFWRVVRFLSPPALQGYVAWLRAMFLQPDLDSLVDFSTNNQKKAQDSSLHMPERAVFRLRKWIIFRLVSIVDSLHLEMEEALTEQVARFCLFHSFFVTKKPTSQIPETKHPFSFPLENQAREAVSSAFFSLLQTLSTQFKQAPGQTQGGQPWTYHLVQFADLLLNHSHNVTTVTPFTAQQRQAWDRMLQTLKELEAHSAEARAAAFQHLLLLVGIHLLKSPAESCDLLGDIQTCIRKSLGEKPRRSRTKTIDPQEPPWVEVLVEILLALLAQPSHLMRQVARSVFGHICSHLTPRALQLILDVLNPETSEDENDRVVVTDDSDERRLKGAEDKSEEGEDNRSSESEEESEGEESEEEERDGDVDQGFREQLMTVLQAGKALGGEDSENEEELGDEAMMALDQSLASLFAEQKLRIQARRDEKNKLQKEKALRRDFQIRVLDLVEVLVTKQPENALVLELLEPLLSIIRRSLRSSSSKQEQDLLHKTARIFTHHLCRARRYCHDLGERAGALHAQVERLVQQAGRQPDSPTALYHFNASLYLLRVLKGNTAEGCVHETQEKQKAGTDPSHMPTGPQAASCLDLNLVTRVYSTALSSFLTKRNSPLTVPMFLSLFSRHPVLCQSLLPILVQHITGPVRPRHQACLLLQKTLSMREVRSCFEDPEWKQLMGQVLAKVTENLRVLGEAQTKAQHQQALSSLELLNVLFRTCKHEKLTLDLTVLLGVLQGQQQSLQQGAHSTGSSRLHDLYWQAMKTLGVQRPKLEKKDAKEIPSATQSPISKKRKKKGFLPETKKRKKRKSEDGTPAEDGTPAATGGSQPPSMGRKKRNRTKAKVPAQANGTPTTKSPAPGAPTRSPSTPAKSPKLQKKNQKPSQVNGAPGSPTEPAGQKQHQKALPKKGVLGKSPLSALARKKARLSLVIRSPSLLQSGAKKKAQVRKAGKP
# UniProt P35580, whole entry, looked up: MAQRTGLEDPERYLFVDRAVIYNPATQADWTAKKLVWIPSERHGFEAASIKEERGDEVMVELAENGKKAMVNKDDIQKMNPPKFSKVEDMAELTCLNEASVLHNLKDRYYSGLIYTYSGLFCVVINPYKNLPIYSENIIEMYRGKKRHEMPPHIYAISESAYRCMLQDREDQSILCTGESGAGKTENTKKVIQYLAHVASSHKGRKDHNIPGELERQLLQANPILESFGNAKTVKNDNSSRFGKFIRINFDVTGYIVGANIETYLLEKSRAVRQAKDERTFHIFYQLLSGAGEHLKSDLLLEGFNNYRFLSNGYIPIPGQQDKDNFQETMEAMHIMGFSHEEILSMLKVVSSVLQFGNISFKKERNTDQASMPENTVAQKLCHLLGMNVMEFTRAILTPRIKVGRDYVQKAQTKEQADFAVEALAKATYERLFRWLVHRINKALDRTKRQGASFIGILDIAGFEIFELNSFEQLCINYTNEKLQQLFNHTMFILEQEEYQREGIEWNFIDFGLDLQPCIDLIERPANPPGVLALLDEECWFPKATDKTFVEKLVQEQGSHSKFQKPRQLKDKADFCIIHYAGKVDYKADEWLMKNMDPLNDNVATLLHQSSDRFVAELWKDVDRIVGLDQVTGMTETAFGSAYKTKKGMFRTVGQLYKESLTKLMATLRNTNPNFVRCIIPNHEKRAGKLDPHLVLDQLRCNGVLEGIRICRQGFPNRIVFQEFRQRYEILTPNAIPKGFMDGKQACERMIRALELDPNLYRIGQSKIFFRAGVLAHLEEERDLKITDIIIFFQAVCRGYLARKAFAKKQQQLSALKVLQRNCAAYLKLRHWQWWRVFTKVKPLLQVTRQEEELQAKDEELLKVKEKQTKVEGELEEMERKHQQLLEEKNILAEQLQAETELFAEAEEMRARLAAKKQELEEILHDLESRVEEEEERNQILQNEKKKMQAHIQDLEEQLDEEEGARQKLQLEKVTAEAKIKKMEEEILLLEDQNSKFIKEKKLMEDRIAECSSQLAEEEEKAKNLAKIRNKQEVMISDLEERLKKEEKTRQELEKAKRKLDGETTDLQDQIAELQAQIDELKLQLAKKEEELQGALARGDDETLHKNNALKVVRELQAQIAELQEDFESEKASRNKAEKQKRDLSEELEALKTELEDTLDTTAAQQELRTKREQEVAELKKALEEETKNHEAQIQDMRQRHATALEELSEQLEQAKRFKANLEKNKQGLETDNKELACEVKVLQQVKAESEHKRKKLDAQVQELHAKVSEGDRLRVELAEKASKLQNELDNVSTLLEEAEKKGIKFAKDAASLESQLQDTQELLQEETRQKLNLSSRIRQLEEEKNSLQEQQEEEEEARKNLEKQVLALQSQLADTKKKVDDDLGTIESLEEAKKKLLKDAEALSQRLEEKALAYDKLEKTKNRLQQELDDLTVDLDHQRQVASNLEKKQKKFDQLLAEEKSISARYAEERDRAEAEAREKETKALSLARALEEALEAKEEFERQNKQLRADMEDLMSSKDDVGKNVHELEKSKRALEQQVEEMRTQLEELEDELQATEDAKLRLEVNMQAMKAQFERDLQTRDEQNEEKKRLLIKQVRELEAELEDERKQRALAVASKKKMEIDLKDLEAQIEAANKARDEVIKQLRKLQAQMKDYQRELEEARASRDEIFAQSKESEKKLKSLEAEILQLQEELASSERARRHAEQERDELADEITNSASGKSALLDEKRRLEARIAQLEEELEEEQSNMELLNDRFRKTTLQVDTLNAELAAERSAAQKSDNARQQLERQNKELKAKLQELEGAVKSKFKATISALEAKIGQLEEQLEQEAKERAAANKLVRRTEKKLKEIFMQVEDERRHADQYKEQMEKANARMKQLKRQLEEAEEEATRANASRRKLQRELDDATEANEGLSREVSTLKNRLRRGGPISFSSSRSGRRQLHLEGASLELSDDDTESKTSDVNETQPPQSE
# UniProt O43347, 1-21: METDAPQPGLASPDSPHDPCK
# UniProt Q6P1R3, 74-100: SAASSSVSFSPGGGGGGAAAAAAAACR
# UniProt Q9NZJ7, whole entry, looked up: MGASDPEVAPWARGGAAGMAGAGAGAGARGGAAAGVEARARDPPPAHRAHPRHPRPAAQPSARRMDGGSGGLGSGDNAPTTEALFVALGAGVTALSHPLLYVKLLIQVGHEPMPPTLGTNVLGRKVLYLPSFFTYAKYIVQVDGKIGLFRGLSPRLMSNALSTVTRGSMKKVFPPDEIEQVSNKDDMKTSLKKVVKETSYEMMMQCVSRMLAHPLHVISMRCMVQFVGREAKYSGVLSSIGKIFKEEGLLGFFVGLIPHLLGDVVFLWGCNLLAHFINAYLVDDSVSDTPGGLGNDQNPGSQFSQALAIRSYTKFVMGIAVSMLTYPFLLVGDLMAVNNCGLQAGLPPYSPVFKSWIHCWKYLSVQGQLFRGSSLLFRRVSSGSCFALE
# UniProt Q15390: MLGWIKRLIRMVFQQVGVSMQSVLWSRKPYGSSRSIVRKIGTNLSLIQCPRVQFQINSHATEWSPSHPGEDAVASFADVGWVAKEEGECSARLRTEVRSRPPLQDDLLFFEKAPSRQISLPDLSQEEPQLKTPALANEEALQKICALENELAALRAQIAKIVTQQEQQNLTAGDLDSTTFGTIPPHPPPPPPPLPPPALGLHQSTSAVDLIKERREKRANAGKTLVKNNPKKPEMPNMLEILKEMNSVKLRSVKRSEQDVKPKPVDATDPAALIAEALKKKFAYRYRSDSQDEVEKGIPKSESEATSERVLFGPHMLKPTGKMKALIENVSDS
# UniProt Q6N069: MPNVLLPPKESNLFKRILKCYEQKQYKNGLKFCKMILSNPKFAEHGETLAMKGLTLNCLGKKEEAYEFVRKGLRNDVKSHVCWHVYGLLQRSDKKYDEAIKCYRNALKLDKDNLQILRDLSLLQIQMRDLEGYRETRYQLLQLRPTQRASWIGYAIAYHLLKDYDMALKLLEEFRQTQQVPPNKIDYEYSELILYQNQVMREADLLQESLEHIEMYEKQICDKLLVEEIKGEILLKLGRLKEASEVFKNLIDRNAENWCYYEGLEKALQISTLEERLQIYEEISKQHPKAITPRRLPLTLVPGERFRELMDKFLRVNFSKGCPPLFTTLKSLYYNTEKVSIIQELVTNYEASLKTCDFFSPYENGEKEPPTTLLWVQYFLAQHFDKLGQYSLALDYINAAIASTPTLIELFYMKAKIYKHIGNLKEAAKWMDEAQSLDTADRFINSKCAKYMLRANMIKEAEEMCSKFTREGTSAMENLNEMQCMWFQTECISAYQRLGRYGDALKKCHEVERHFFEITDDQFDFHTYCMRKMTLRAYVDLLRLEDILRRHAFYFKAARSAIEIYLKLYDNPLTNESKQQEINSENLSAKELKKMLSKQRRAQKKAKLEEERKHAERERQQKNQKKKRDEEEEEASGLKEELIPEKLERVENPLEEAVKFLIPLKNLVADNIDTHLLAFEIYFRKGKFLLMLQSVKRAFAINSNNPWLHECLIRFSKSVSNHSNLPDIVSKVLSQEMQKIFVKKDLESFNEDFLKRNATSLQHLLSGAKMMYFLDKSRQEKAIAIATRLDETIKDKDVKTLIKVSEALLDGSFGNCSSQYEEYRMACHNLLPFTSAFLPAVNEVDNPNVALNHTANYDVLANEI
# UniProt Q13496: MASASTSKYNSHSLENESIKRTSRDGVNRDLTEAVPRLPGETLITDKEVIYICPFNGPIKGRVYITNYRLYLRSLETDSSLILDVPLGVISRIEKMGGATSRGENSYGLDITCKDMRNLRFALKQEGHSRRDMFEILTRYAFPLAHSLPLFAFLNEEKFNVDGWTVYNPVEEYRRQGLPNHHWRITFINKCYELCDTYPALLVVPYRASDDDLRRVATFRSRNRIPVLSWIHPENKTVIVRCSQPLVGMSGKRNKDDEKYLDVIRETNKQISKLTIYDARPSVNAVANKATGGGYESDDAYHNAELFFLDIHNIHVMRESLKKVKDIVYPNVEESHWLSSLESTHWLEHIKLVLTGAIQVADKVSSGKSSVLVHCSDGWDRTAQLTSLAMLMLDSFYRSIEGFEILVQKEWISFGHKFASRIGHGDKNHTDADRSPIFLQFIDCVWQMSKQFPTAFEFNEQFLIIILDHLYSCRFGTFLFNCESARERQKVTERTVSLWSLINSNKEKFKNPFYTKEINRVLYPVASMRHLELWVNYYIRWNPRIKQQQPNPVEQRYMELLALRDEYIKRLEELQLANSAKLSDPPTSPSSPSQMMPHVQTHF
# UniProt Q5VVJ2: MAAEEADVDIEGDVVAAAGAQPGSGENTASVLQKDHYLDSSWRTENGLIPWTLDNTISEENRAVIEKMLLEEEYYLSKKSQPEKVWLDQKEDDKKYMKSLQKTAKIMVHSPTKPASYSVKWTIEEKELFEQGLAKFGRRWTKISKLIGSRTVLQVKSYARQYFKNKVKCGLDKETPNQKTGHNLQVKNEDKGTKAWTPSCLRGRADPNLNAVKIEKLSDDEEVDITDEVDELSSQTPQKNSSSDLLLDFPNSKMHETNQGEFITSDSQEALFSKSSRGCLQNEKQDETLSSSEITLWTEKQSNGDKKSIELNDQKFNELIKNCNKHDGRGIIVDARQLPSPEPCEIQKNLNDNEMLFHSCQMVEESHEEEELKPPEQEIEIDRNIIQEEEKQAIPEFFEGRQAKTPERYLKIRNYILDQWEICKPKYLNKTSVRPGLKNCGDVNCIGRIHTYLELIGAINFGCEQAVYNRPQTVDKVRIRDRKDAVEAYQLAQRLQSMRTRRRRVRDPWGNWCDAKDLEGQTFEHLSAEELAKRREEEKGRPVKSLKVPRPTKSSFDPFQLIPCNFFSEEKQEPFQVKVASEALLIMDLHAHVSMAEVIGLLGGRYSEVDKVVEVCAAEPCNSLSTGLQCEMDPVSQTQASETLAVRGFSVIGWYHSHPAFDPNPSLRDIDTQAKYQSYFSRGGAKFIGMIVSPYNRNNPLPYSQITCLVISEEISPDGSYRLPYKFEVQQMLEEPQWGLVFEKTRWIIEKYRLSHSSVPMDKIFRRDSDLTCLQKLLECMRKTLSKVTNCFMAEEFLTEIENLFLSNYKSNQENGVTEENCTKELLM
# This is one part of the list. The data scatter; read single values as rough.
# Compound: ClCC(=O)N[C@H]1CCCc2ccccc12
# Assay: log2 mean competition ratio of IA-DTB cysteine labelling (DMSO/compound) (log2 ratio); higher = stronger cysteine engagement by compound
# Details: 200 µM; treatment time: 4 h; cell line lysate: HEK293T
# Description: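 IA-DTB competitive cysteine chemoproteomics in HEK293T RIPA lysate. Lysates were treated with compound 29 or 30 at 50 or 200 µM for 4 h, then IA-DTB (500 µM, 1 h), trypsin-digested, NeutrAvidin-enriched and analysed by diaPASEF. Competition ratio = intensity DMSO / intensity compound (n=4 treated, n=64 DMSO); binding: mean log2 CR ≥ 1 and p ≤ 0.05 plus QC filters. Target is the cysteine site.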
row,Target,log2 mean competition ratio
1,MRPS6 C105 (UniProt P82932),-0.171
2,MRPS2 C162 (UniProt Q9Y399),-0.1
3,MSH3 C847 (UniProt P20585),0.0509
4,MYBBP1A C338 (UniProt Q9BQG0),-0.213
5,MYH10 C701 (UniProt P35580),0.0576
6,MYO6 C790 (UniProt Q9UM54),0.0752
7,MTMR4 C637 (UniProt Q9NYA4),0.15
8,MSH6 C765 (UniProt P52701),0.113
9,MSI1 C20 (UniProt O43347),0.145
10,MRPS18A C118 (UniProt Q9NVS2),0.0171
11,MYH10 C1011 (UniProt P35580),-0.321
12,MYCBP2 C1497 (UniProt O75592),0.215
13,MTO1 C104 (UniProt Q9Y2Z2),0.1
14,MTOR C1660 (UniProt P42345),-0.0727
15,MYO1E C519 (UniProt Q12965),0.418
16,MRPL28 C154 (UniProt Q13084),1.79
17,MTCH2 C79,-0.183
18,MSANTD2 C99 (UniProt Q6P1R3),0.156
19,NARS1 C438,-0.0177

# An excerpt of these results, bar-delimited.
row | Target | log2 mean competition ratio
14 | MTOR C1660 (UniProt P42345) | -0.0727
15 | MYO1E C519 (UniProt Q12965) | 0.418

# (next part)

row,Target,log2 mean competition ratio
1,NAA25 C339 (UniProt Q14CX7),-0.134
2,MTCH1 C385 (UniProt Q9NZJ7),-0.0806
3,MYH10 C1238 (UniProt P35580),-0.179
4,MTHFD1L C814,0.0586
5,MTA1 C281 (UniProt Q13330),0.115
6,MTMR2 C417 (UniProt Q13614),-0.338
7,MYO6 C587 (UniProt Q9UM54),-0.0635
8,MTG1 C113 (UniProt Q9BT17),-0.0531
9,MTFR1 C145 (UniProt Q15390),0.233
10,MYBBP1A C942 (UniProt Q9BQG0),-0.237
11,NAA16 C259 (UniProt Q6N069),-0.0437
12,MTM1 C113 (UniProt Q13496),0.108
13,MYO9A C32 (UniProt B2RTY4),-0.269
14,MYO1D C97 (UniProt O94832),-0.202
15,MYSM1 C822 (UniProt Q5VVJ2),0.0451
16,MTA2 C261 (UniProt O94776),0.217
17,MTOR C674 (UniProt P42345),-0.0919
18,MSH3 C626 (UniProt P20585),-0.102
19,MYH9 C1379 (UniProt P35579),-0.376
